These are yes or no findings as the source states them, for the method shown.
Biological target: Atto594-SUMO1 (UniProt P63165)
Assay: fluorescence polarisation; fluorescence anisotropy; labeled ubiquitin, ubiquitin chains or SUMO1 as probe, UBXD1 titrated; PBS pH 7.5, 25 °C; one-site fit; both purified

Chains of the proteins cited; added tags and fusions are not shown. Residues count along the entry.
UniProt P63165, residues 1-97: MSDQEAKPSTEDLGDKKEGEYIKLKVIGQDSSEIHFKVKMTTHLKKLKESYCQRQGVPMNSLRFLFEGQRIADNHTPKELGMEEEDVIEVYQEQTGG
UniProt Q9BZV1: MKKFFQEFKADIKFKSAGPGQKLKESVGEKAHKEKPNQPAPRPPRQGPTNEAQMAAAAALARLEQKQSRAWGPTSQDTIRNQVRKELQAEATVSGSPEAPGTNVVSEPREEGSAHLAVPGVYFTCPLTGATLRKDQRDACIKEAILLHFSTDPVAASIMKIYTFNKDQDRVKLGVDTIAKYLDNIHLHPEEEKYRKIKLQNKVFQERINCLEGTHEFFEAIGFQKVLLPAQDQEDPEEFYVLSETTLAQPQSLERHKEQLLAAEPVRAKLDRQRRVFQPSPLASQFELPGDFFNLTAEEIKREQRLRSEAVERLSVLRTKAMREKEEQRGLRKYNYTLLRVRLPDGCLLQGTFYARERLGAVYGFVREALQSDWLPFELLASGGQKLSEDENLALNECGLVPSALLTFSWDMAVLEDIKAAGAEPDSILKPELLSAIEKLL

- binding: no binding
Substance: UBXD1 (1–441), recombinant, purified (from UniProt Q9BZV1 1-441)
